From patent US20230235090A1
These are yes or no findings as the source states them, for the method shown. Some results given as binding are weak or reduced against the parent protein; the word gives no strength.

Target: cynomolgus monkey B7-H4 (cynomolgus monkey)
Assay: FACS on CHO-K1/cyno B7-H4 cells

B1: PR001476 (antibody, human IgG1, kappa, V domains shown)
VH: QVQLVESGGGVVQPGRSLRLSCAASGFTFRSFGMHWVRQAPGKGLEWVAVISYDGSNEYYADSVKGRFIISRDNSKDTLYLQMNSLRAGDTAVYYCAKGGGLRWYFAYWGQGTLVTVSS
VL: EIVMTQSPATLSVSPGERATLSCRASQSISSNLGWYQQKPGQAPRLLIYGASTRATGIPARFSGSGSGTEFTLTISSLQSEDFAVYYCQQYNSWPPLTFGGGTKVEIKR
Which binding does the source give for B1 here?
The binding was “binds”.
